Test results reported in patent US20240299593A1, “SYSTEMS AND METHODS FOR GENERATION OF HYPERPOLARIZED MATERIALS” (NVISION IMAGING TECHNOLOGIES GMBH, priority 2021, published 2024).

Assay: Liquid-liquid purification system, Example 1 (samples of phases analyzed)
Details: for concentration in final samples: Vessel 3, after evaporation with nitrogen gas flushing

For CC(C)=O [Acetone], the “concentration in final samples” value was 200 to 400 mM.

In the case of CCOCC [Diethyl ether], the “concentration in final samples” value was 10 to 50 mM.

In the case of CC(=O)C(=O)[O-].[Na+] [sodium pyruvate], the “concentration in the aqueous phase” value (Vessel 1, after first washing step) was 70 to 100 mM and the “concentration in final samples” value was 70 to 100 mM.
